# Among all 400,000 compounds or so, about 13,000 (3.2%) were called active. The shares of active, inactive and inconclusive entries below differ from those in the screen. Calls come from the whole dose curve; as a rule, active = well fitted cell-killing curve with a large enough effect; inconclusive = small, poorly fitted or top-dose-only effect, or effect the other way; inactive = flat fitted curve, though single readings scatter. A potency beside an inconclusive call is a rough fit, not a confirmed value.
# Assay: qHTS assay for MDR1-selective chemotherapeutics: Primary screen using the drug-selected MDR subline cells KB-V1; note: nearly all actives have a fitted effect of over 60% in size
# Conditions: KB-V1 MDR cells viability, CellTiter-Glo, 72 h; activity change, negative = cytotoxicity: at 46.1 µM (top of the series)
# How it was run: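 Cells of the MDR subline KB-V1 are plated, dosed with compound at multiple concentrations, and incubated 72 h at 37 degrees C; CellTiter-Glo is then added and luminescence read after 10 min.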
# % is set by controls: 0 for no effect and ±100 for the full control effect; potency is the fitted concentration of half-maximal effect.
Compound,Potency,"activity change, negative = cytotoxicity"
CCOc1ccc(CN(C)c2ccc(S(=O)(=O)N3CCN(C)CC3)cc2[N+](=O)[O-])cc1OC,active: 2.31 µM,
Cc1ccc(C)c(S(=O)(=O)NC(C)CCc2ccccc2)c1 (configuration not stated),,inactive: -13.7%
Cc1cc(C)cc(Oc2ccc(S(=O)(=O)N3CCN(C)CC3)cn2)c1,"inconclusive: 29.1 µM [cytotoxic, single point]",
C[C@H](NC(=O)c1[nH]cnc1C(=O)Nc1ccc(CNC(=O)OC(C)(C)C)cc1)C(=O)OCc1ccccc1,"inconclusive: 29.1 µM [cytotoxic, single point]",
COc1ccc(CCn2c(C)cc3c(c2=O)C(c2ccncc2)C(C#N)=C(N)O3)cc1OC (configuration not stated),"inconclusive: 29.1 µM [rising, single point]",
CCN(CC)C(=O)C1CCCN(Cc2cccc(Cl)c2)C1 (configuration not stated),,inactive: -18.5%
CC1(C)CC(=O)C2=C(C1)NC1=C(C(=O)c3ccccc31)C2c1ccc(Cl)cc1 (configuration not stated),active: 14.6 µM,
Cc1ccc(C(NC(=O)NC(C)c2ccccc2)C(Cl)(Cl)Cl)cc1F (configuration not stated),active: 20.6 µM,
CN(CC(=O)Nc1cccc2ccccc12)C(=O)/C=C/c1cccs1,"inconclusive: 25.9 µM [cytotoxic, single point]",
COc1ccc(C)cc1N1CC(C(=O)Nc2ccccc2N2CCCCC2)CC1=O (configuration not stated),,inactive: -13.8%
CCOC(=O)COc1ccc(F)cc1C(=O)c1ccn2nc(-c3ccc(Cl)cc3)cc2n1,"inconclusive: 14.6 µM [rising, partial curve]",
CCOC(=O)c1noc2ncnc(Nc3cccc(OC)c3)c12,,inactive: 0%
C=CCc1cccc(/C=N/NC(=O)CNc2ccccc2)c1O,,inactive: -26.9%
Cc1c(C(=O)NCc2ccc(C(F)(F)F)cc2)sc(=O)n1Cc1ccc(S(=O)(=O)N(C)C)cc1,"inconclusive: 2.91 µM [cytotoxic, full curve]",
CC1=[N+](C)N(c2ccccc2)C(=O)C1N=Cc1c(Cl)cccc1Cl (configuration not stated),"inconclusive: 16.4 µM [rising, partial curve]",
COc1ccc(C(=O)N2c3cc4c(cc3C(C)=CC2(C)C)OCO4)cc1,"inconclusive: 20.6 µM [cytotoxic, partial curve, poor fit]",
CCOc1ccc(S(=O)(=O)Nc2ccccc2C(=O)NCC2CCCO2)cc1 (configuration not stated),"inconclusive: 16.4 µM [cytotoxic, single point]",
COc1cccc(CC(=O)Nc2ccc(-c3csc(C)n3)cc2)c1,"inconclusive: 14.6 µM [cytotoxic, single point]",
COc1ccc(C2NC(=O)NC(C)=C2[N+](=O)[O-])cc1OC (configuration not stated),"inconclusive: 18.4 µM [rising, single point]",
COc1ccc(N2CCN(CCCNC(=O)C3CCCN(S(=O)(=O)c4cnc[nH]4)C3)CC2)cc1 (configuration not stated),,inactive: -6.26%
COCC(=O)N/N=C\c1ccc(OC/C=C/c2ccccc2)c(OC)c1,active: 11.6 µM,
Cc1cc(C)cc(N2C(=O)CSC2c2ccccn2)c1 (configuration not stated),"inconclusive: 23.1 µM [cytotoxic, partial curve, poor fit]",
Cc1nnc(C)n1/N=C/c1cc2ccccc2nc1Cl,,inactive: 0.766%
CC(C)c1ccc(/C=C/C(=O)NC(=S)Nc2ccc(CN3CCOCC3)cc2)cc1,"inconclusive: 6.51 µM [cytotoxic, partial curve]",

# Some of the entries so far, bar-delimited.
Compound | Potency | activity change, negative = cytotoxicity
Cc1ccc(C)c(S(=O)(=O)NC(C)CCc2ccccc2)c1 (configuration not stated) |  | inactive: -13.7%
Cc1cc(C)cc(Oc2ccc(S(=O)(=O)N3CCN(C)CC3)cn2)c1 | inconclusive: 29.1 µM [cytotoxic, single point] | 
CCOC(=O)c1noc2ncnc(Nc3cccc(OC)c3)c12 |  | inactive: 0%
Cc1cc(C)cc(N2C(=O)CSC2c2ccccn2)c1 (configuration not stated) | inconclusive: 23.1 µM [cytotoxic, partial curve, poor fit] | 
CC(C)c1ccc(/C=C/C(=O)NC(=S)Nc2ccc(CN3CCOCC3)cc2)cc1 | inconclusive: 6.51 µM [cytotoxic, partial curve] | 

# More compounds follow.

Compound,Potency,"activity change, negative = cytotoxicity"
CC(C)CN(C)Cc1c(C(=O)N2CCc3ccccc3C2)nc2ccc(Cl)cn12,active: 16.4 µM,
Cc1onc(-c2ccccc2Cl)c1C(=O)N1CCN(c2ccccc2)CC1,active: 20.6 µM,
Cc1ccc(S(=O)(=O)N2CCC(=O)N([C@H](COCc3cccc(Cl)c3)Cc3ccccc3)CC2)cc1,"inconclusive: 29.1 µM [cytotoxic, partial curve, poor fit]",
O=C(Nc1nc(OCCN2CCCC2=O)cnc1/C=C\c1ccccc1)c1cc2ccccc2s1,"inconclusive: 29.1 µM [cytotoxic, single point]",
O=C(CCCn1c(=S)[nH]c2ccccc2c1=O)N1CCCCC1,"inconclusive: 18.4 µM [cytotoxic, single point]",
COc1ccc(C=C2Cc3ccccc3C2=O)cc1,"inconclusive: 29.1 µM [cytotoxic, single point]",
C/C(=N/NC(=O)NC12CC3CC(CC(C3)C1)C2)c1ccccc1,,inactive: 16.2%
CCn1c(-c2c[nH]c3ccccc23)n[nH]c1=S,"inconclusive: 14.6 µM [cytotoxic, partial curve, poor fit]",
O=c1c2ccccc2nc(/C=C/c2ccc3c(c2)OCO3)n1CCCO,,inactive: -22.6%
CCCCCCC[n+]1ccc(/C=C/c2c[nH]c3ccccc23)c2ccccc21,"inconclusive: 29.1 µM [cytotoxic, single point]",
CCCN1C(=O)/C(=C/c2cc(C)n(C)c2C)SC1=Nc1ccc(OC)cc1,"inconclusive: 20.6 µM [cytotoxic, partial curve]",
CCc1nnc(SCC(=O)Nc2ccc(N3CCOCC3)cc2)n1C,,inconclusive: -34.1% [cytotoxic]
CCOC(=O)c1nn(-c2ccc(Br)cc2)cc1C(=O)c1cccc2ccccc12,active: 11.6 µM,
COc1ccc(CN2C(=O)CC(Cc3ccc(C)cc3)C2=O)cc1OC (configuration not stated),active: 18.4 µM,
COC(=O)c1sccc1NC(=O)c1cc(-c2ccc(C)cc2C)nc2ccccc12,"inconclusive: 20.6 µM [cytotoxic, single point]",
Cn1cncc1C#Cc1ccc(N2C(c3ccsc3)=Cc3ccc(F)cc3C2c2c[nH]c3ccccc23)cc1 (configuration not stated),,inactive: -7.83%
Cc1ccc(-c2nn(-c3ccccc3)cc2CO)cc1,,inactive: -2.44%
Cc1ccc(-c2nc(C(=O)NCc3ccccc3Cl)c3n2CCCCC3)cc1,"inconclusive: 9.2 µM [cytotoxic, partial curve]",
CCCCCCn1c(-c2ccco2)nc2oc3cc(OC)ccc3c(=O)c2c1=O,"inconclusive: 7.31 µM [cytotoxic, partial curve, poor fit]",
COc1cc(C2NC(=O)NC(C)=C2C(=O)OCc2ccc(C)cc2)cc(OC)c1OC (configuration not stated),,inactive: 0%
CCC(C)NCCCCOc1cc(C)cc(C(C)C)c1 (configuration not stated),"inconclusive: 23.1 µM [cytotoxic, partial curve, poor fit]",
CCNC(=O)c1ccc(C2SCC(=O)N2CCc2ccccc2)cc1 (configuration not stated),"inconclusive: 29.1 µM [cytotoxic, single point]",
Cc1cc(NC(=O)CCC(=O)N(c2ccccc2F)C(C(=O)NC2CCCC2)c2ccccc2)no1 (configuration not stated),"inconclusive: 14.6 µM [cytotoxic, partial curve]",
Cc1nc(N2CCCCC2)sc1C(=O)c1cccc([N+](=O)[O-])c1,"inconclusive: 20.6 µM [cytotoxic, partial curve]",

Compound,Potency,"activity change, negative = cytotoxicity"
C[C@@H](NC(=O)[C@@H]1CCCN1C(=O)OC(C)(C)C)c1ccccc1,"inconclusive: 18.4 µM [cytotoxic, partial curve]",
C=CC[C@@H](CC(=O)N(CCO)Cc1ccccc1)C(=O)N[C@H](C)COC(=O)[C@@H](CC=C)Cc1ccc(F)cc1,,inactive: 10.3%
COC(=O)c1cc(C)nc2c1c(=O)nc(SCc1ccccc1C)n2C1CC1,,inactive: -10.1%
C#CCOc1ccc(C2C3=C(COC3=O)Nc3cc4c(cc32)OCO4)cc1OC (configuration not stated),active: 4.61 µM,
COc1cccc(C(=O)N(c2ccc(C)cc2)C2C=CS(=O)(=O)C2)c1 (configuration not stated),"inconclusive: 16.4 µM [cytotoxic, partial curve, poor fit]",
Cc1ccc2cc(C(c3nnnn3Cc3ccccc3)N3CCN(c4ccccc4)CC3)c(=O)[nH]c2c1 (configuration not stated),"inconclusive: 18.4 µM [cytotoxic, partial curve, poor fit]",
CS(=O)(=O)Nc1ccc(-c2cc(/C=C3\SC(N)=NC3=O)c[nH]c2=O)cc1,,inactive: 0.564%
Cc1sc2nc(COC(=O)c3c(F)cccc3F)[nH]c(=O)c2c1C,,inactive: -3.27%
O=C1Nc2cc(C(=O)NCCN3CCCCCC3)ccc2S/C1=C/c1ccccc1F,"inconclusive: 20.6 µM [cytotoxic, single point]",
O=C(NC(NC1CCS(=O)(=O)C1)C(Cl)(Cl)Cl)c1cccc(Cl)c1 (configuration not stated),active: 23.1 µM,
Cc1ccc2c(c1)COc1c3ccc(C(=O)NC(C)C)cc3nn1-2,,inactive: -17.9%
O=C(NCc1cccs1)c1cccn2c(=O)c3sccc3nc12,,inconclusive: 1.7%
Cc1ccc(NC(=O)CCSc2nnc(Cc3ccccc3)o2)cc1,"inconclusive: 18.4 µM [cytotoxic, single point]",
CC(=O)c1cccc(NC(=O)CN2C(=O)c3ccccc3C2=O)c1,"inconclusive: 23.1 µM [rising, single point]",
CCCCc1c(-c2ccccc2OC)ncn1CCc1cccc(F)c1,active: 16.4 µM,
CCOc1ccc(C(c2c(O)cc(C)n(Cc3ccco3)c2=O)N2CCCCC2)cc1 (configuration not stated),,inactive: 7.24%
O=C(Nc1ccc(Cc2ccncc2)cc1)c1ccco1,,inactive: -12.5%
COc1ccccc1N1CCN(C2CCCN(Cc3ccc(Cl)cc3)C2)CC1 (configuration not stated),"inconclusive: 9.2 µM [cytotoxic, partial curve]",
COc1ccc(-c2sc3ccccc3c2-c2ccc(OC)cc2F)cc1,,inactive: -6.26%
Cc1cc(C(=O)N/N=C/c2ccc(-c3ccccc3Cl)o2)n[nH]1,active: 23.1 µM,
Cc1nn(-c2ccc(C(=O)OC(C)C)cc2)c(C)c1[N+](=O)[O-],"inconclusive: 18.4 µM [cytotoxic, single point]",
O=C(Nc1cccc(-c2nc3ccccc3o2)c1)C(F)(F)F,,inactive: -3.78%
Nc1nc(SCC(=O)O)[nH]c(=O)c1NC(=O)c1ccco1,,inconclusive: 30.9%
Cc1cc(Cl)ccc1OCC(=O)N1CCC(c2nc3ccccc3s2)CC1,"inconclusive: 23.1 µM [cytotoxic, single point]",

# From PubChem BioAssay AID1347076 (National Center for Advancing Translational Sciences (NCATS), 2019)
